Measured values taken from patent EP0583821A1, “Atriopeptins, guanylate cyclase activators, and phosphodiesterase inhibitors as treatment for glaucoma, hydrocephalus and cerebral edema (cranial fluid volume dysfunction)” (THE GENERAL HOSPITAL CORPORATION, priority 1987, dated 1988).
For at least one compound, name, drawing or mass did not settle the structure.

How the values were obtained:
[1] = tested on: rabbits; experiment: Intraocular pressure and ocular observations after topical (eye drop) application; format: in vivo, rabbit; conditions: 0.1% eye drop preparation
Description: The measurement of intraocular pressure (IOP), was performed using procedures similar to those described in Nathanson, Brit. J. Pharmacol., 73:97 (1981) and Nathanson, Current Eye Res., 4:191 (1985). Briefly, male (3-5 kg), New Zealand white rabbits were housed under standard conditions and exposed to a 12 hr light-dark cycle. IOP was measured with a Perkins applanation tonometer after topical anesthesia with 0.4% benoxinate (and 0.25% sodium fluorescein). The tonometer had been calibrated previously by connecting the anterior chamber of enucleated rabbit eyes to a manometer (and reservoir) and taking tonometer readings at different pressures. A number of preliminary IOP readings were made in order to accommodate the animals to the measurement procedure. Readings were then taken just prior to drug or vehicle injection and at 3, 9, 20, 27, 44, 51, 72, and 144 hours post-injection.
A potent PDE inhibitor of the arylxanthine class, 1,3-dibutylxanthine, was applied unilaterally and topically to rabbit eyes in a 0.5% solution. […]
The effect of nitroglycerine eye drops on rabbit intraocular pressure was also measured. The IOP of 8 conscious, male albino rabbits (3-4 kg) was measured by applanation pnumatonometry after topical anesthesia with 0.4% benoxinate. […] Blood pressure and pulse rate were measured by a photoelectric detector using an automated external tail cuff. […]

[2] = tested on: guanylate cyclase; experiment: Ciliary process guanylate cyclase activity (Tables 2 and 3); format: biochemical; conditions: Table 2; 10⁻⁴M

With `Nc1cc(N2CCCCC2)nc(N)[n+]1[O-]` [COMPOUND "M", minoxidil] as the compound, how does the “effect on IOP” value [1] read?
Its value is “significant decrease in IOP”.

What about the “CILIARY PROCESS GUANYLATE CYCLASE ACTIVITY (Percent Increase)” value [2] of the same compound?
The value was 14 ± 4 Percent Increase.
